# Results of single-concentration screens

Each number is a percent effect as filed.
How 0% and 100% were set is not recorded. Most values in the screen are low, and negative values occur.
The compounds are a random part of those screened.
Two or more numbers in one place are separate tests of the same structure; such repeats can differ widely.

Mtb glucose medium: 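Whole-cell growth test on Mycobacterium tuberculosis, read after 3 days in glucose-containing 7H9 medium; the read-out is not stated. Concentration: 50 µM. Direction is inferred from retests: higher values go with more growth inhibition. About 69,000 compounds were tested under these conditions; 1.1% (about 760) showed 50% or more at least once.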
Mtb cholesterol medium: 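Growth of Mycobacterium tuberculosis over 4 days (cholesterol / DPPC medium with tyloxapol); the read-out is not stated. Concentration: 50 µM. Direction is inferred from retests: higher values go with more growth inhibition. Of about 69,000 compounds tested this way, about 370 (0.54%) reached 50% or more in at least one test.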

| SMILES | Mtb glucose medium | Mtb cholesterol medium |
|---|---|---|
| `CCN1CCCCC1C(=O)N1CCN(C(=O)OC)CC1` (configuration not stated) | -0.1176 | 1.529 |
| `O=C(NCC1CC1)C1=NOC2(CCN(Cc3ccsc3)C2)C1` (configuration not stated) | 10.18 and 18.98 | 11.75 |
| `CCCNCc1cn(C)nc1-c1cccnc1.Cl` | 12.49 | 5.35 |
| `CCCc1ccc(C(=O)N2CCn3c(nnc3C(C)C)C2)cc1` | 0.8916 | 11.98 |
| `[H][C@@]12CCN(Cc3cccc(C)n3)[C@@]1([H])CCN2C(=O)c1cnoc1C` | -1.433 | 3.946 and -5.206 |
| `O=C(NC[C@H]1OC[C@@H](NC2COC2)[C@@H]1O)Nc1ccccc1` | -4.814 and -0.1412 | -1.368 |
| `CCN(C(=O)Nc1cccnc1OC)C1CC1` | 13.88 | -10.78 |
| `CCOCc1cc(CNC2CCCc3c2cnn3CC)ccc1OC` (configuration not stated) | 4.547 | 16.87 |
| `Cc1ccc2[nH]c(=O)cc(C(=O)NCCCn3nccc3C3CC3)c2c1` | 6.05 and 19.96 | -10.07 and 54.51 |
| `COc1ccc(SC(C)C(=O)N2CCC(O)CC2)cc1` (configuration not stated) | 4.982 and 4.72 | 0.6732 |
| `CCn1cnnc1CNC(=O)N1CCC(Cc2cccnc2)CC1` | 12.04 | -2.701 |
| `O=C(Cc1cccs1)N1CC(c2nc(-c3cnccn3)no2)C1` | -0.5947 and -14.13 | 2.978 |
| `Cc1noc(C)c1NC(=O)NC1CCN(C(=O)OC(C)(C)C)CC1` | -21.82 and 6.652 | -7.125 |
| `N#CC1COCCN1C(=O)c1cccc2cc[nH]c12` (configuration not stated) | 0.119 | -2.187 |
| `CC(c1nc(C2CC2)no1)N1CCN(Cc2ccsc2)CC1` (configuration not stated) | -21.85 | 17.19 |
| `CCn1nc(C)c2nnn(CC(=O)Nc3cccc(C)c3)c(=O)c21` | 28.23 | -0.9929 |
| `O=C(O)C(F)(F)F.O=C(O)C(F)(F)F.[H][C@@]12C[C@@H](Oc3cncnc3)CN1CCN(Cc1cccc(C)n1)C2` | -20.17 | 4.796 |
| `[H][C@@]12COC[C@]1(c1nnc(C3CC3)o1)CN(C(=O)c1ocnc1C)C2` | -6.334 and -0.9201 | -9.345 |
| `CN(CCCc1cc(-c2cccc(F)c2)n[nH]1)C(=O)Cn1cncn1` | 10.31 | 6.909 |
| `O=c1cc(-c2ccc(F)cc2)nc2n1CCCCC2` | -3.506 | -3.003 |
| `CC(NC(=O)CCC1CCCCC1)c1nnc2n1CCC2` (configuration not stated) | 9.861 | -12.58 |
| `CCn1nc2c(cc1=O)CN(CCOc1cccc(C#N)c1)CC2` | 31.15 and 11.64 | 21.99 |
| `O=C(O)C(F)(F)F.O=C(O)C(F)(F)F.[H][C@@]12COC[C@@H](C(=O)NCc3ccccn3)[C@]1([H])CN(c1ncccn1)C2` | -24.76 | -25.61 |
| `COCCN(C)CCN1CC2(CCN(C3CCOCC3)CC2)OC1=O` | 10.82 | -10.06 and -2.787 |
| `CCc1ncc2c(n1)CN(CCCc1nc3ccccc3o1)CC2` | -13.16 | -1.178 |
| `CN1CCN(Cc2ccccc2CNC(=O)c2ccc(Br)cc2F)CC1` | 9.146 | 7.119 |
| `Cc1cc(C(=O)NCc2ccccc2CN(C)Cc2ccco2)on1` | -1.726 and -31.55 | 6.414 |
| `OCC1COCCN(c2ncccc2C(F)(F)F)C1` (configuration not stated) | 20.44 | 7.936 |
| `[H][C@]12CCC(=O)N(c3ccccc3)[C@@]1([H])CCN2C(=O)C1CC1` | 13.05 | -8.553 |
| `CC(C)COc1cncc(NCCc2nnc3ccccn23)n1` | -16.26 | -6.194 and -3.186 |
| `O=C(CCNS(=O)(=O)c1ccccc1)N1CCOC(c2ccccc2)C1` (configuration not stated) | 21.28 and -1.941 | -10.07 |
| `CN(C)c1ccc(CNC2=NCCCN2)cc1.I` | -42.54 | -28.54 |
| `Cc1nn(C)c2ncc(S(=O)(=O)N3CCCN4CCCC4C3)cc12` (configuration not stated) | 1.979 | -6.842 |
| `Br.Cc1ccc(OCCCSC2=NCCN2)cc1` | 20.82 | 23.97 |
| `c1ncn(CC2CN(Cc3nc(C4CC4)no3)CCO2)n1` (configuration not stated) | -4.866 and -40.03 | -23.38 |
| `Cn1cncc1-c1nnc([C@H]2CCN(Cc3ncc[nH]3)C2)o1` | -4.91 and 5.012 | -12 |
| `Cc1noc(C)c1S(=O)(=O)NC(=O)COc1ccc2c(c1)CCC2` | 2.156 | -5.767 |
| `[H][C@@]12CN(C(=O)NC3CCCC3)C[C@]1(C(=O)O)CN(c1ccc(C)nn1)C2` | 0.1299 and 0.3163 | 9.4 |
| `O=C(O)C(F)(F)F.[H][C@@]12CCN(Cc3ccccc3OC)C[C@]1([H])O[C@H](C(=O)N1CCCC1)C2` | 0.4913 | -8.745 |
| `COCc1cn(C2CCN(C(=O)Cc3ccsc3)CC2)nn1` | 21.75 | -7.706 |
| `Cn1c(C2CC2)nc2c1CCN(CCS(=O)(=O)c1ccccc1)C2` | -3.27 | -5.784 |
| `CCOc1ncccc1NC(=O)NC1CCN(c2ncccn2)CC1` | 10.61 | 2.756 |
| `Cc1ccc(C(=O)N2CCC(c3nccn3C(C)C)CC2)c(=O)[nH]1` | 2.838 | -3.668 and -0.1596 |
| `O=C(O)C(F)(F)F.c1ccc(CN2CCOC3(COCCN(c4ncccn4)C3)C2)nc1` (configuration not stated) | -2.209 and -16.97 | 15.39 |
| `CN1CCN(C(=O)c2n[nH]c3c2CN(Cc2nccs2)CC3)CC1` | 1.082 and -0.734 | 5.843 and -22.28 |
| `Cc1nccn1-c1ccc(NC(=O)C2CCCN2Cc2c[nH]cn2)cc1` (configuration not stated) | -12.3 | -44.32 |
| `COC(=O)c1cc(OCC2CCC2)cc(C(=O)N[C@H]2CC[C@H](O)CC2)c1` | -7.309 and -9.523 | -29.27 |
| `Cc1cc(C(=O)N2CCCC(c3nccn3Cc3cscn3)C2)on1` (configuration not stated) | 52.72 | 1.787 and -17.19 |
| `CCC(C)N(Cc1sccc1C)C(=O)c1cnc[nH]1` (configuration not stated) | -3.862 and 16.71 | 18.27 |
| `Cc1cccc(OCCCN2CCC(N(C)Cc3noc(C)n3)C2)c1` (configuration not stated) | 17.61 | -3.012 |
| `COc1ccc(NC(=O)CCC2CCCN(Cc3ncon3)C2)c(C)c1` (configuration not stated) | -3.721 | -14.38 |
| `CCc1nnc2n1CCN(Cc1ncc(-c3ccc(F)cc3)o1)C2` | 22.82 | 1.007 |
| `O=C1CCC(=O)N1CCN1CCOC(c2ccsc2)C1` (configuration not stated) | -15.27 and -3.16 | -8.803 |
| `Cc1ccc(NC(=O)N(C)CC(O)COCCOC(C)C)c(Br)c1` (configuration not stated) | -16.06 | -9.835 |
| `COc1cnc(N2CCCN(c3ccc(F)cc3)CC2)nc1` | -0.1812 | 1.783 |
| `Cc1ncncc1C(=O)N1CCOC(C)(C(=O)NC2CCCC2)C1` (configuration not stated) | -28.01 | -32.65 |
| `Cc1ccc(CNC(=O)NC(C)CN2CCOCC2)s1` (configuration not stated) | -9.271 | -6.838 and -14.7 |
| `Cc1oncc1C(=O)N1CCC2(CC1)CC(N1CCOCC1)C2.O=C(O)C(F)(F)F` | 4.499 | -14.89 and -5.64 |
| `CC(C)N1CCCCC1c1cc(CO)[nH]n1` (configuration not stated) | -14.1 | -13.56 and -2.056 |
| `O=C(NCCC1=CCCCC1)C1CCCN(c2ccc3nncn3n2)C1` (configuration not stated) | -19.86 | -25.23 |
| `CCCC(NC(=O)c1cc(C2CC2)[nH]n1)c1nnc2ccccn12` (configuration not stated) | -17.25 | -13.08 |
| `O=C(O)C(F)(F)F.O=C(O)C(F)(F)F.O=C1CC2(CCN(Cc3ccncc3)C2)CN1c1cccc(F)c1` (configuration not stated) | 15.14 and 27.51 | 26.27 and 7.58 |
| `O=C(c1ccc(COc2ccc(Cl)cc2)o1)N1N=CCC1(O)C(F)(F)F` (configuration not stated) | 0.1659 and 20.96 | 15.66 |
| `Cc1nc(O)cc(CN2CC=C(c3cnn(-c4ccccc4)c3)CC2)n1` | -15.98 | -21.06 |
| `[H][C@]12CC[C@]([H])(CN(C)C1)N(C(=O)c1ccc(Cl)c(C)c1)C2` | -49.43 and -8.351 | -25.03 |
| `CN(CC1CC1)c1ccc2ccc(C(=O)NC3CCCCC3)cn12` | -28.79 | 6.712 and -12.23 |
| `Cc1nccc(NCc2cncc3c2CCN(CC2CCOC2)C3)n1.Cl.Cl` (configuration not stated) | -18.92 | -3.1 |
| `CCCOC(=O)N1CCCC(c2nnc(CN3CCOCC3)n2C)C1` (configuration not stated) | -13.73 | -39.94 |

The first 4 entries again:

SMILES	Mtb glucose medium	Mtb cholesterol medium
CCN1CCCCC1C(=O)N1CCN(C(=O)OC)CC1 (configuration not stated)	-0.1176	1.529
O=C(NCC1CC1)C1=NOC2(CCN(Cc3ccsc3)C2)C1 (configuration not stated)	10.18 and 18.98	11.75
CCCNCc1cn(C)nc1-c1cccnc1.Cl	12.49	5.35
CCCc1ccc(C(=O)N2CCn3c(nnc3C(C)C)C2)cc1	0.8916	11.98

The values are deposited in ChEMBL (CHEMBL3988442, “University of Dundee, Small-Polar-MMV Screening Library” (2021)).